PubChem BioAssay AID1259254 – NCATS | 2017
Here is a random part of about 59,000 deposited reagents. In the full data, about 1,550 (2.6%) got an active call. 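G2 share is only a proxy for re-replication; each gene was hit by three separate siRNAs, and active genes were retested.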 Entries without a mark were called inactive. The numbers tell different reagents against one gene apart. Not all columns of the deposit are shown. Not given: the amount of reagent.

- Test: 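Finding genes that stop cells copying their DNA twice in one cycle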 (primary screen)
- Cell system: human HCT116 colorectal cancer cells
- Reagent: single siRNA against human genes
- Time to read-out: 3 days
- Measured: 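Imaged Hoechst DNA stain sorts each cell into a cycle phase by DNA amount; per plate, G2 fraction set to 0% for non-targeting and 100% for GMNN siRNA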
- Scale: G2 robust z-score: higher = more G2 cells, more excess DNA replication
- Rule for the call: 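Active siRNAs have a G2 robust z of 5 or more median absolute deviations over the median, which in these data means about 38% or higher of GMNN control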

For IGFL4 (IGF like family member 4) #1, what does the deposit list?
G2 robust z-score: -0.516

What did the screen give for IGFL4 (IGF like family member 4) #2?
G2 robust z-score: -0.593

What did the screen give for IGFL4 (IGF like family member 4) #3?
G2 robust z-score: -0.301

What did the screen give for IGFL4 (IGF like family member 4) #4?
G2 robust z-score: 0.365

For IGFL4 (IGF like family member 4) #5, how do the results read?
G2 robust z-score: -0.289

For IGFL4 (IGF like family member 4) #6, how do the results read?
G2 robust z-score: 0.244

For LOC729218 #1, what was measured?
G2 robust z-score: -0.0495

What is on record for LOC729218 #2?
G2 robust z-score: -0.0231

For LOC729218 #3, what does the deposit list?
G2 robust z-score: -0.0106

For LOC729218 #4, what does the deposit list?
G2 robust z-score: -0.212

With LOC729218 #5, what does the deposit list?
G2 robust z-score: 3.63

With LOC729218 #6, how do the results read?
G2 robust z-score: -0.114

What is on record for TMEM115 (transmembrane protein 115) #1?
G2 robust z-score: -0.452

What is on record for TMEM115 (transmembrane protein 115) #2?
G2 robust z-score: 0.826

What did the screen give for TMEM115 (transmembrane protein 115) #3?
G2 robust z-score: -0.0495

Not a retest: an excerpt of the list.
IGFL4 (IGF like family member 4) #6 — G2 robust z-score: 0.244
LOC729218 #1 — G2 robust z-score: -0.0495
LOC729218 #2 — G2 robust z-score: -0.0231

Further results follow:
With UNK (unk zinc finger) #1, what does the deposit list?
G2 robust z-score: -0.46

With UNK (unk zinc finger) #2, what does the deposit list?
G2 robust z-score: -0.589

With UNK (unk zinc finger) #3, how do the results read?
G2 robust z-score: -0.0777

For HPDL (4-hydroxyphenylpyruvate dioxygenase like) #1, how do the results read?
G2 robust z-score: 0.694

For HPDL (4-hydroxyphenylpyruvate dioxygenase like) #2, what was measured?
G2 robust z-score: 0.381

Which result is listed for HPDL (4-hydroxyphenylpyruvate dioxygenase like) #3?
G2 robust z-score: 1.52

How did the screen score EHD3 (EH domain containing 3) #1?
G2 robust z-score: -1.26

How did the screen score EHD3 (EH domain containing 3) #2?
G2 robust z-score: 1.39

Which result is listed for EHD3 (EH domain containing 3) #3?
G2 robust z-score: -0.151
